In publication PMC8740024:
Results are given in words; binding and its absence hold for the method and conditions named. Binding seen in cells or lysates may run through a third protein. Some binding calls cover weakened binding; strength is not graded here. For some assays here: Tags and fused reporters may be left off the sequences shown.

Experiments:
[1] = target: T1, GFP-SGIP1α-MPΔ34-61 (mouse) (UniProt Q8VD37); assay: co-IP; co-immunoprecipitation of HA-SGIP1α-MP with GFP-tagged constructs or GFP; which tag was precipitated and the cells are told only in the Supplementary Methods
T1 sequence: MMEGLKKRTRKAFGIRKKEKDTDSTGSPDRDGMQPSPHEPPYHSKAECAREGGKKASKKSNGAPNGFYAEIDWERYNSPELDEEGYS

[2] = target: SGIP1α-MP (membrane phospholipid-binding domain of mouse SGIP1α) (mouse) (UniProt Q8VD37); assay: as above

binding [1]: no binding
binding [2]: binds
B1: SGIP1α-MP (membrane phospholipid-binding domain of mouse SGIP1α) (domain or fragment, UniProt Q8VD37-6 1-33; Q8VD37-6 62-115)
chain: MMEGLKKRTRKAFGIRKKEKDTDSTGSPDRDGMQGKKKAQKTQLLLTSCFWLRALSLTLSQQPSPHEPPYHSKAECAREGGKKASKKSNGAPNGFYAEIDWERYNSPELDEEGYS
